Earlier results in patent US10925925B2, “Therapy of atherosclerosis, primary biliary cirrhosis and NRLP3 inflammasome-associated disease by HTCP inhibitors” (MYR GmbH, priority 2017, dated 2021).
At least one structure is not confirmed: it was looked up by name or label, or the drawing left a doubt.

Test system: NLRP3 inflammasome
Settings: Guo et al., 2016

C[C@H](CCC(=O)O)[C@H]1CC[C@H]2[C@@H]3CC[C@@H]4C[C@H](O)CC[C@]4(C)[C@H]3CC[C@]12C [LCA, lithocholic acid]
control of inflammation and metabolic disorder through NLRP3 inflammasome inhibition: particularly effective

C[C@H](CCC(=O)NCCS(=O)(=O)O)[C@H]1CC[C@H]2[C@@H]3CC[C@@H]4C[C@H](O)CC[C@]4(C)[C@H]3CC[C@]12C [TLCA, taurolithocholic acid]
control of inflammation and metabolic disorder through NLRP3 inflammasome inhibition: particularly effective
